Some of the results follow.
How the values were obtained:
Test in all cases: log2 fold change, soluble protein after heating vs DMSO (PISA); higher = thermal stabilisation; K562 lysate, 10 uM; active = over 0.2 and 3.5 SD of the protein, either way, in both replicates (recomputed)
[1] = compound: Cc1cn(-c2cc(NC(=O)c3ccc(C)c(Nc4nccc(-c5cccnc5)n4)c3)cc(C(F)(F)F)c2)cn1 [nilotinib]
In short: (§1)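 Quantification was by TMTpro 16plex LC-MS/MS with equalised channel sums, applied to the supernatant after 21,000xg for 90 min. Samples were crude K562 extract at 1 mg/mL protein in PBS pH 7.4 with 1 mM MgCl2, treated with 10 μM compound for 30 min, heated for 3 min across 48°C-58°C, pooled and brought to 0.5% NP-40 at 4°C. Values are log-two fold changes in thermal stability relative to solvent controls, from duplicates.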

Protein sequences, listed by entry. Tags and fused reporters are not part of them. Lines headed by an entry give the natural chain unless they say otherwise; changes in a name come on top.
UniProt Q9UJA5: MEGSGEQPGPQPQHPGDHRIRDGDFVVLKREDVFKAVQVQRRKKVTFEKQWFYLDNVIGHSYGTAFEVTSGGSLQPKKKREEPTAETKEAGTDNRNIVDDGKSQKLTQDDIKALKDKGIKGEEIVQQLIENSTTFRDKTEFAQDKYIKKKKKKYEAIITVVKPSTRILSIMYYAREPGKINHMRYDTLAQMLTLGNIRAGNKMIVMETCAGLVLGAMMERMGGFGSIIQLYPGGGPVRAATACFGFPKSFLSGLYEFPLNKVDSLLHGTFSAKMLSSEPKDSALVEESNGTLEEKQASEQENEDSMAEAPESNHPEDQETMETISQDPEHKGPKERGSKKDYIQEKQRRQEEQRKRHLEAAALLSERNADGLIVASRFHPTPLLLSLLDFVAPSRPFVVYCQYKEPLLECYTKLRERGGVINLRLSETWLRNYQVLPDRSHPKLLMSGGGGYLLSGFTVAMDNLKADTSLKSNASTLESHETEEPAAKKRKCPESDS
UniProt Q9Y3Q8: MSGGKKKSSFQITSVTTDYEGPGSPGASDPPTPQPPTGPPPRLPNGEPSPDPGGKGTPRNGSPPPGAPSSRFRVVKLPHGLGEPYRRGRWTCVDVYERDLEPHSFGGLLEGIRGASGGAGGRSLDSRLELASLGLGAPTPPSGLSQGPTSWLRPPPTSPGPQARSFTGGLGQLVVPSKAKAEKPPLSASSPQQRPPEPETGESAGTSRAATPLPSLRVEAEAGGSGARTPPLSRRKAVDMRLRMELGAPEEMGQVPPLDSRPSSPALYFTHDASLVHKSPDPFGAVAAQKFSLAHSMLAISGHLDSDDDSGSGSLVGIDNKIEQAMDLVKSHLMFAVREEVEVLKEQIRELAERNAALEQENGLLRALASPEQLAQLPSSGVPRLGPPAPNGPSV
UniProt Q96AE7: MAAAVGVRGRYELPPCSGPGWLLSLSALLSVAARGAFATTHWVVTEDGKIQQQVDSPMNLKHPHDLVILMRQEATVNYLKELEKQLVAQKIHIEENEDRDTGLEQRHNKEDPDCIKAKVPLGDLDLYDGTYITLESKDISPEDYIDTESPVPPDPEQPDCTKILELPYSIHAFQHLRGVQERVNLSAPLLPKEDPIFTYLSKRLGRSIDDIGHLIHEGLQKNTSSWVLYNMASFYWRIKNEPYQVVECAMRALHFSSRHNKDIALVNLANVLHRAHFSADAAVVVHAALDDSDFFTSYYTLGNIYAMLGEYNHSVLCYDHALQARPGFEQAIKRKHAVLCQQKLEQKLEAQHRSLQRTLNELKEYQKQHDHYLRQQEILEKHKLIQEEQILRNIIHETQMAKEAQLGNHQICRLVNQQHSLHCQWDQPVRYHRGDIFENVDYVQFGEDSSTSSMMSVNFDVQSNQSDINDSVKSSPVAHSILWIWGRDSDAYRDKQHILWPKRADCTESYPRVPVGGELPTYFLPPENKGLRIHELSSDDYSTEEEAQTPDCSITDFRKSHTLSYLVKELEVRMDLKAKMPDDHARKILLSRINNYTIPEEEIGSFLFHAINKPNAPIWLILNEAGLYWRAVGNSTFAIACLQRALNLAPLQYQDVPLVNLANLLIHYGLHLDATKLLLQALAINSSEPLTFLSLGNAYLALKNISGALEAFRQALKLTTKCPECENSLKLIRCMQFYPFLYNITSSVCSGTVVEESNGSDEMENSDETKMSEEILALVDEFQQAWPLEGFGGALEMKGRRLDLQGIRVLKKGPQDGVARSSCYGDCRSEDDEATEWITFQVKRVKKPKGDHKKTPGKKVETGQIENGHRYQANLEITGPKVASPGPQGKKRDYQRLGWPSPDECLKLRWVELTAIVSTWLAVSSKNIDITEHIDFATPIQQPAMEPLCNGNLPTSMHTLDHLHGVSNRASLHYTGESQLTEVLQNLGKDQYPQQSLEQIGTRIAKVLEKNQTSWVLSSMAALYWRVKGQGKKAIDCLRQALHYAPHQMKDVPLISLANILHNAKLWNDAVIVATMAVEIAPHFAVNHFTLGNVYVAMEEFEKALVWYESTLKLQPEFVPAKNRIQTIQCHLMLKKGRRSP
UniProt P33981: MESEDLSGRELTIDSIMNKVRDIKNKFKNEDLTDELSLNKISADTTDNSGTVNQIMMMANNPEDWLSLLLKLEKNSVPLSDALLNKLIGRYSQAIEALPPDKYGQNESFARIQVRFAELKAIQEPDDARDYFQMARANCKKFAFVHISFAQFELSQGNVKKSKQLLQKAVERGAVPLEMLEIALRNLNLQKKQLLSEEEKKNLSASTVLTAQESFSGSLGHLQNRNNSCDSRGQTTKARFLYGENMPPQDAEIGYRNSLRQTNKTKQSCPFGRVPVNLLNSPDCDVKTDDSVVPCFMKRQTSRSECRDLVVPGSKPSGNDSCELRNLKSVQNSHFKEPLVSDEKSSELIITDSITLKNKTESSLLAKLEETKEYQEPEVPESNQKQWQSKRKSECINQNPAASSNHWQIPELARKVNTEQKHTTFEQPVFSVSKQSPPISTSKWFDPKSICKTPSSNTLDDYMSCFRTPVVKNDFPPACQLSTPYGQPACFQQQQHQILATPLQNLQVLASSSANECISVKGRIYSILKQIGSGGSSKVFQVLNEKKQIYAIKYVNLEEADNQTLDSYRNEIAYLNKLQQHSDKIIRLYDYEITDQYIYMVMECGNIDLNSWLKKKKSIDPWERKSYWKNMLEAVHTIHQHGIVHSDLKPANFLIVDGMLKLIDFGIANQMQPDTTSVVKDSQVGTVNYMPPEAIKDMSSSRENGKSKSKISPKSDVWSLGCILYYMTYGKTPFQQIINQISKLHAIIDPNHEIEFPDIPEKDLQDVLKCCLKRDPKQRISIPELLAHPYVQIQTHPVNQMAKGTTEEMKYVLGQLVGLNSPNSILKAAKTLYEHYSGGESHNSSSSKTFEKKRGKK
UniProt Q15642: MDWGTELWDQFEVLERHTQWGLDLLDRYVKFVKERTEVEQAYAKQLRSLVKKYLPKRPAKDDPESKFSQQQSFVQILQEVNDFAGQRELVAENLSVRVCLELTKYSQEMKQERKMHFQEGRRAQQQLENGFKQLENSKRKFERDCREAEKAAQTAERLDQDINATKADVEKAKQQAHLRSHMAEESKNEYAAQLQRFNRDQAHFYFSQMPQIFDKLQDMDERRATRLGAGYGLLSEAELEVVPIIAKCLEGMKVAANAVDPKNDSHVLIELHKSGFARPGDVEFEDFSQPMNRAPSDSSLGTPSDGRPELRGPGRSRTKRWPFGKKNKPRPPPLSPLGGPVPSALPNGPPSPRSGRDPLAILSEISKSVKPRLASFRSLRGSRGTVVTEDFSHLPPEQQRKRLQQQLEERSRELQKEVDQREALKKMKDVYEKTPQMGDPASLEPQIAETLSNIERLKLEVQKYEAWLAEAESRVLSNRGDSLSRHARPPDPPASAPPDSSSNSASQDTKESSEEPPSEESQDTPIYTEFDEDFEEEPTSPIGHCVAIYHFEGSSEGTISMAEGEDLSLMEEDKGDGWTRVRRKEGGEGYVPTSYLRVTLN
UniProt O95857: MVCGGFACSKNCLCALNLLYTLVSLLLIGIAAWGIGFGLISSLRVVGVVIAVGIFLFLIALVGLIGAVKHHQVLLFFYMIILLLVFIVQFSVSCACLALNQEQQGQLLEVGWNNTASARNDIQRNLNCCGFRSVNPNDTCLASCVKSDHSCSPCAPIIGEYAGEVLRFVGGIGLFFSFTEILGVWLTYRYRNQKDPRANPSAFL
UniProt Q6Q0C0: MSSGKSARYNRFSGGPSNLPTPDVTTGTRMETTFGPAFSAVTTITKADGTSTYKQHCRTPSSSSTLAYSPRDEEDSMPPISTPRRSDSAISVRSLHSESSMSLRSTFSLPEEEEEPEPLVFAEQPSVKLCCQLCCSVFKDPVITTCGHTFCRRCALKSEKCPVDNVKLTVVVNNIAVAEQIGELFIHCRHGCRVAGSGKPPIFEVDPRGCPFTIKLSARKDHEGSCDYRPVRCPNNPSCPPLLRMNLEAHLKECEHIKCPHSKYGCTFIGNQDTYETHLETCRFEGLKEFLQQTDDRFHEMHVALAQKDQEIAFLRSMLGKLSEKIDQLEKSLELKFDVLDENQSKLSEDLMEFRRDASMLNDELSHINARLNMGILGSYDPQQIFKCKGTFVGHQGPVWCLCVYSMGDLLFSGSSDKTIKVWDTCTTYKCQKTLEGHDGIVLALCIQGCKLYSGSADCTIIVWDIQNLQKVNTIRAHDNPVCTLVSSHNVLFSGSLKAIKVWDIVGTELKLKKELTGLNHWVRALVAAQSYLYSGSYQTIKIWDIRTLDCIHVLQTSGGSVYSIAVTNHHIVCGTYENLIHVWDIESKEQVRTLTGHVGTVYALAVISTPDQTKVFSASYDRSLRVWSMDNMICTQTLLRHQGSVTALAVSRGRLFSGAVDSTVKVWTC
UniProt Q13630: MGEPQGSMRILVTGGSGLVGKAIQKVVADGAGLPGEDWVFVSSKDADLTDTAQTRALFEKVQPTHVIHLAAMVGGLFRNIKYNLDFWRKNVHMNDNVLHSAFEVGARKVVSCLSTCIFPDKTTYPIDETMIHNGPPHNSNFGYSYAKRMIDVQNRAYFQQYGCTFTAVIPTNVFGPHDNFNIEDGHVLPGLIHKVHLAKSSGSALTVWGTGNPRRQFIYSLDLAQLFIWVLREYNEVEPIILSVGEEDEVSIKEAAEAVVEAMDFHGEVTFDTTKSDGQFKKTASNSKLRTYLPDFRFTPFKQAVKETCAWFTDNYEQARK
UniProt O75648: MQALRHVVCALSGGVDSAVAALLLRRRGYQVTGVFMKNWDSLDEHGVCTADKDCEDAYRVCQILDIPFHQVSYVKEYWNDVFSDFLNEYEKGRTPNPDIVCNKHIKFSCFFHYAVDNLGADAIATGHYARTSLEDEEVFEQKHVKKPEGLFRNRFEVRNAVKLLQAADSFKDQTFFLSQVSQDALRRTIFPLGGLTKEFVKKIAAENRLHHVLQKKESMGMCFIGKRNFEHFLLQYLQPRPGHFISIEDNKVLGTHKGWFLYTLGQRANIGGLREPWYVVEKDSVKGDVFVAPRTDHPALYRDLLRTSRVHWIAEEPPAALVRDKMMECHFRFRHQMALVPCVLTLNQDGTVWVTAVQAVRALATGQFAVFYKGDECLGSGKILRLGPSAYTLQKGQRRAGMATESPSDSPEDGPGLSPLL
UniProt Q5BVD1: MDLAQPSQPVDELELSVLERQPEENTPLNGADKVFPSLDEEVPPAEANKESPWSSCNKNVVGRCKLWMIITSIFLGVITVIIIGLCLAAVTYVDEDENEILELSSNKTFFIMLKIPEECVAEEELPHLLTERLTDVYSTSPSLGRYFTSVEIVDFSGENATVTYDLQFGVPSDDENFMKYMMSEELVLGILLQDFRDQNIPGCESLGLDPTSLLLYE
UniProt Q12933: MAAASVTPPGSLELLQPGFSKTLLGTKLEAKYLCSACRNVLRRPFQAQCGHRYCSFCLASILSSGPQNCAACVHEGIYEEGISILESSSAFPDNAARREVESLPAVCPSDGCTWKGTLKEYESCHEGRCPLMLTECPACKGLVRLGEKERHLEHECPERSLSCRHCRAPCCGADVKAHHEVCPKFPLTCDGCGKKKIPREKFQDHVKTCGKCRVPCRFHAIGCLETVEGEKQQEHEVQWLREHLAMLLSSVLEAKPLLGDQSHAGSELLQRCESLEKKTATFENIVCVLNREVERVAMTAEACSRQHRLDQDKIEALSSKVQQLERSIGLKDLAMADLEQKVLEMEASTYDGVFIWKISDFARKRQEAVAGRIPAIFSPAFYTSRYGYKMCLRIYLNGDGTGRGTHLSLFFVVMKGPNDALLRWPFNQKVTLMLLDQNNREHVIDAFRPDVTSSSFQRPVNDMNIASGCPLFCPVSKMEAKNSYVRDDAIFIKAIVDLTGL
UniProt Q9BQ61: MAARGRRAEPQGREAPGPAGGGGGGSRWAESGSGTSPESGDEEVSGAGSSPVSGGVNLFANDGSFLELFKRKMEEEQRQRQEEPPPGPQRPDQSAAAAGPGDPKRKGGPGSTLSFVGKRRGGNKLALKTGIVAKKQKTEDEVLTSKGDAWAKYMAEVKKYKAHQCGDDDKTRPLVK
UniProt Q9NUP7: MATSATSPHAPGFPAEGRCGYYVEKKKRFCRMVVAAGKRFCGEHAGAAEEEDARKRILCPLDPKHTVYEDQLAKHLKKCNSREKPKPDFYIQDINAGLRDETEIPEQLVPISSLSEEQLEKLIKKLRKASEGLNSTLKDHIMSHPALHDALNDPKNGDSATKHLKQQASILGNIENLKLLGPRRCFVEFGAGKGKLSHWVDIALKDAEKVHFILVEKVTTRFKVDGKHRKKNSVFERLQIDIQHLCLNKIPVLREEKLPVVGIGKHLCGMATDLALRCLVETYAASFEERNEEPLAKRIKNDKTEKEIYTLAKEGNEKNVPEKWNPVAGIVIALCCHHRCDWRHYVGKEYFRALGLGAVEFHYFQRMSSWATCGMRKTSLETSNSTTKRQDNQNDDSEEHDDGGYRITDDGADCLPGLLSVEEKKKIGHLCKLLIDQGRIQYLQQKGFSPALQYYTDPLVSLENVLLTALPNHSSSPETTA

[2] = compound: Cc1nc(Nc2n[nH]c3c2CN(C(=O)N[C@H](CN(C)C)c2ccccc2)C3(C)C)c2sccc2n1
In short: as §1

[3] = compound: Cc1nc(Nc2ncc(C(=O)Nc3c(C)cccc3Cl)s2)cc(N2CCN(CCO)CC2)n1 [dasatinib]
In short: as §1

[4] = compound: Cc1ncc(-c2ccnc(Nc3ccc(S(C)(=O)=O)cc3)n2)n1C(C)C
In short: as §1

[5] = compound: Cn1cc(-c2ccc3c(c2)CCN3C(=O)Cc2cccc(C(F)(F)F)c2)c2c(N)ncnc21
In short: as §1

[6] = compound: Cn1cc(CNCC2CCN(c3ncc(C(=O)NO)cn3)CC2)c2ccccc21 [quisinostat]
In short: as §1

[7] = compound: Cn1cncc1[C@@](N)(c1ccc(Cl)cc1)c1ccc2c(c1)c(-c1cccc(Cl)c1)cc(=O)n2C [tipifarnib]
In short: as §1

[8] = compound: NC(=O)Nc1cc(-c2cccc(F)c2)sc1C(=O)N[C@H]1CCCNC1
In short: as §1

[9] = compound: NC(=O)c1cnc(N[C@@H]2CCCC[C@@H]2N)nc1Nc1cccc(-n2nccn2)c1
In short: as §1

[10] = compound: NC1(c2ccc(-c3nc4ccn5c(=O)[nH]nc5c4cc3-c3ccccc3)cc2)CCC1
In short: as §1

Measured: log2 fold change

TRMT6 (UniProt Q9UJA5)
inactive: [1] -0.016 | [2] 0 | [3] 0.033 | [4] -0.013 | [5] 0.011 | [6] 0.059 | [7] -0.007 | [8] -0.021 | [9] 0.008 | [10] 0.016

TRAFD1 (UniProt O14545)
inactive: [1] 0.036 | [2] 0.041 | [3] -0.064 | [4] 0.005 | [5] -0.071 | [6] 0.016 | [7] -0.012 | [8] -0.028 | [9] 0.017 | [10] -0.03

TSC22D4 (UniProt Q9Y3Q8)
inactive: [1] 0.041 | [2] 0.01 | [3] 0.031 | [4] -0.017 | [5] 0.051 | [6] -0.018 | [7] 0.004 | [8] 0 | [9] 0.002 | [10] -0.018

TTC17 (UniProt Q96AE7)
inactive: [1] -0.01 | [2] 0.047 | [3] -0.041 | [4] -0.004 | [5] 0.054 | [6] -0.013 | [7] -0.081 | [8] -0.037 | [9] -0.024 | [10] -0.005

TRAM1 (UniProt Q15629)
inactive: [1] -0.119 | [2] 0.023 | [3] -0.047 | [4] 0.112 | [5] -0.038 | [6] -0.063 | [7] -0.031 | [8] 0.069 | [9] -0.026 | [10] 0.065

TTK (UniProt P33981)
inactive: [1] 0.007 | [2] 0.236 | [3] -0.014 | [4] 0.185 | [5] 0.013 | [6] -0.062 | [7] -0.147 | [8] 0.034 | [9] -0.001 | [10] -0.057

TRIP10 (UniProt Q15642)
inactive: [1] 0.024 | [2] 0 | [3] -0.037 | [4] 0.001 | [5] -0.014 | [6] -0.081 | [7] -0.018 | [8] -0.01 | [9] 0.017 | [10] -0.003

TRAPPC3 (UniProt O43617)
inactive: [1] 0.009 | [2] 0.026 | [3] 0.018 | [4] -0.054 | [5] -0.011 | [6] 0.102 | [7] 0.013 | [8] -0.025 | [9] -0.017 | [10] 0.077

TSC2 isoform 4 (UniProt P49815)
inactive: [1] 0.013 | [2] -0.024 | [3] -0.044 | [4] 0.098 | [5] -0.006 | [6] -0.097 | [7] -0.052 | [8] 0.036 | [9] 0.049 | [10] -0.059

TSPAN13 (UniProt O95857)
inactive: [1] -0.067 | [2] 0.02 | [3] -0.054 | [4] 0.121 | [5] -0.35 | [6] 0.034 | [7] -0.032 | [8] -0.126 | [9] 0.035 | [10] 0.132

TSPO (UniProt P30536)
inactive: [1] 0.002 | [2] -0.038 | [3] 0.018 | [4] 0.058 | [5] -0.001 | [6] -0.087 | [7] 0.008 | [8] 0.018 | [9] -0.078 | [10] 0.051

TSEN34 (UniProt Q9BSV6)
inactive: [1] 0.02 | [2] 0.05 | [3] -0.085 | [4] -0.032 | [5] -0.011 | [6] 0.012 | [7] 0.037 | [8] 0.013 | [9] -0.006 | [10] -0.065

TRMT12 (UniProt Q53H54)
inactive: [1] -0.02 | [2] -0.005 | [3] -0.032 | [4] 0.062 | [5] -0.017 | [6] -0.074 | [7] -0.007 | [8] 0.117 | [9] -0.009 | [10] 0.004

TRAF7 (UniProt Q6Q0C0)
inactive: [1] 0.16 | [2] 0.027 | [3] -0.005 | [4] 0.154 | [5] 0.163 | [6] -0.035 | [7] -0.1 | [8] -0.033

TSTA3 (UniProt Q13630)
inactive: [1] -0.026 | [2] 0.004 | [3] 0.027 | [4] -0.053 | [5] -0.008 | [6] 0.161 | [7] 0.046 | [8] -0.005 | [9] 0.014 | [10] 0.026

TRAPPC5 (UniProt Q8IUR0)
inactive: [1] -0.035 | [2] 0.008 | [3] -0.049 | [4] -0.056 | [5] 0.05 | [6] 0.01 | [7] 0.01 | [8] 0.022 | [9] 0.033 | [10] -0.001

TRMT10A (UniProt Q8TBZ6)
inactive: [1] 0.008 | [2] -0.027 | [3] -0.07 | [4] 0.019 | [5] 0.013 | [6] -0.028 | [7] 0.005 | [8] 0.01 | [9] 0.028 | [10] -0.01

TRMU (UniProt O75648)
inactive: [1] -0.035 | [2] 0.076 | [3] -0.09 | [4] 0.002 | [5] -0.019 | [6] -0.058 | [7] -0.089 | [8] 0.002 | [9] 0.062 | [10] -0.066

TRIP6 (UniProt Q15654)
inactive: [1] 0.023 | [2] 0.001 | [3] 0 | [4] 0.032 | [5] -0.012 | [6] -0.003 | [7] -0.007 | [8] -0.01 | [9] 0.015 | [10] -0.002

TTMP isoform 3 (UniProt Q5BVD1)
inactive: [1] 0.118 | [2] -0.023 | [3] -0.079 | [4] -0.022 | [5] -0.046 | [6] -0.475 | [7] -0.089 | [8] 0.048 | [9] 0.116 | [10] -0.113

TRRAP (UniProt Q9Y4A5)
inactive: [1] 0.025 | [2] -0.017 | [3] -0.03 | [4] 0.039 | [5] 0.032 | [6] -0.01 | [7] -0.015 | [8] 0.047 | [9] 0.002 | [10] -0.009

TRIM33 isoform 2 (UniProt Q9UPN9)
inactive: [1] 0.004 | [2] -0.012 | [3] -0.044 | [4] -0.015 | [5] 0.021 | [6] -0.035 | [7] 0.021 | [8] -0.01 | [9] 0.01 | [10] -0.025

TSR3 (UniProt Q9UJK0)
inactive: [1] 0.071 | [2] -0.011 | [3] 0.002 | [4] 0.092 | [5] -0.087 | [6] -0.058 | [7] -0.021 | [8] 0.006 | [9] -0.05 | [10] 0.05

Taken from the entries so far (2 entries):
TRRAP (UniProt Q9Y4A5)
inactive: [1] 0.025 | [2] -0.017 | [3] -0.03 | [4] 0.039 | [5] 0.032 | [6] -0.01 | [7] -0.015 | [8] 0.047 | [9] 0.002 | [10] -0.009

TRIM33 isoform 2 (UniProt Q9UPN9)
inactive: [1] 0.004 | [2] -0.012 | [3] -0.044 | [4] -0.015 | [5] 0.021 | [6] -0.035 | [7] 0.021 | [8] -0.01 | [9] 0.01 | [10] -0.025

Further results.

TTI1 (UniProt O43156)
inactive: [1] -0.007 | [2] 0.004 | [3] 0.005 | [4] 0.001 | [5] 0.016 | [6] -0.047 | [7] -0.015 | [8] -0.003 | [9] 0.01 | [10] -0.001

TRIM23 (UniProt P36406)
inactive: [1] 0.107 | [2] -0.004 | [3] -0.005 | [4] -0.046 | [5] 0.136 | [6] -0.044 | [7] 0.023 | [8] 0.005 | [9] 0.072 | [10] 0.037

TSEN54 (UniProt Q7Z6J9)
inactive: [1] -0.1 | [2] 0.053 | [3] -0.033 | [4] 0.156 | [5] -0.049 | [6] -0.117 | [7] 0.015 | [8] 0.065 | [9] 0.112 | [10] 0.023

TRAF2 isoform 2 (UniProt Q12933)
inactive: [1] -0.02 | [2] 0.008 | [3] -0.024 | [4] 0.042 | [5] 0.01 | [6] -0.024 | [7] 0.005 | [8] -0.016 | [9] 0.001 | [10] -0.016

TRMT61B (UniProt Q9BVS5)
inactive: [1] 0.014 | [2] 0.03 | [3] 0.065 | [4] -0.032 | [5] -0.014 | [6] 0.02 | [7] -0.001 | [8] 0.005 | [9] 0.026 | [10] -0.009

TRIR (UniProt Q9BQ61)
inactive: [1] -0.023 | [2] 0.025 | [3] 0.016 | [4] -0.008 | [5] -0.034 | [6] -0.039 | [7] -0.005 | [8] -0.046 | [9] -0.034 | [10] 0.002

TRMT13 (UniProt Q9NUP7)
inactive: [1] 0.031 | [2] -0.016 | [3] -0.016 | [4] -0.049 | [5] -0.04 | [6] 0.03 | [7] 0.008 | [8] -0.074 | [9] -0.04 | [10] 0.025
